Measurements reported in PubChem BioAssay AID686937 (Drosophila RNAi Screening Center, 2013).

Screen: 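Genes whose loss weakens secretory pathway function in fly cells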 (primary screen)
System: Drosophila S2 cells expressing secreted horseradish peroxidase
Reagent: long dsRNA against Drosophila genes
Timing: about 5.5 days (5 days dsRNA, then 12 h reporter induction)
Conditions: reporter expression induced after 5 days of dsRNA, read 12 h later; inducer not stated
Measured: 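After 5 days of dsRNA and 12 h of reporter induction, medium peroxidase read by chemiluminescence and scored as per-plate z-score; higher values mean more reporter released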
Reading the numbers: z-score: higher = more reporter secreted into medium
The screen tested about 23,000 reagents; below is an unselected part of those with a known target gene and a result. 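Reduced-secretion tags in replicate 1 do not always agree with the z-scores; no criterion for assigning the tags was given.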 Further read-outs or replicates are left out here. Not given: the amount of reagent.

target | DRSC id | z-score, replicate 1 | z-score, replicate 2 | z-score, replicate 3 | z-score, replicate 4
CG15107 | DRSC06534 | -0.02 | 0.47 | – | –
ttm3 (tiny tim 3) | DRSC03736 | 1.37 | 0.17 | – | –
CG2267 | DRSC15435 | 0.23 | 0.15 | – | –
Spn100A (Serpin 100A) | DRSC14596 | 0.11 | 0.3 | – | –
gnu (giant nuclei) | DRSC10497 | 0.32 | 0.22 | – | –
CG15916 | DRSC19740 | 0.41 | 0.45 | – | –
CG13907 | DRSC08377 | 0.39 | 0.25 | – | –
GAPsec (GTPase activating protein, SECIS-dependent read-through) | DRSC10564 | 0.13 | -0.07 | – | –
spz3 (spatzle 3) | DRSC02391 | 0.53 | 0.19 | – | –
spz3 (spatzle 3) | DRSC03008 | 0.27 | -0.06 | – | –
Gga | DRSC18260 | 0.26 | 0.15 | – | –
shi (shibire) | DRSC20373 | 0.69 | 0.37 | – | –
gdrd (goddard) | DRSC10020 | -0.14 | 0.29 | – | –
Gdi (GDP dissociation inhibitor) | DRSC03330 | 0.22 | 0.2 | – | –
Dbct (Dihydrolipoamide branched chain transacylase E2) | DRSC19951 | 0.18 | 0.4 | – | –
Zfrp8 (Zinc finger protein RP-8) | DRSC04352 | 0.3 | -0.24 | – | –

Next part, starting with the last 3 of the part before.
target | DRSC id | z-score, replicate 1 | z-score, replicate 2 | z-score, replicate 3 | z-score, replicate 4
Gdi (GDP dissociation inhibitor) | DRSC03330 | 0.22 | 0.2 | – | –
Dbct (Dihydrolipoamide branched chain transacylase E2) | DRSC19951 | 0.18 | 0.4 | – | –
Zfrp8 (Zinc finger protein RP-8) | DRSC04352 | 0.3 | -0.24 | – | –
CG3408 | DRSC10360 | 0.29 | 0.26 | – | –
qtc (quick-to-court) | DRSC02364 | -0.01 | 0.22 | – | –
qtc (quick-to-court) | DRSC02365 | -7.48 | 0.07 | – | –
CG12204 | DRSC19442 | 0.17 | 0.25 | – | –
Gclm (Glutamate-cysteine ligase modifier subunit) | DRSC15677 | 0.37 | 0.44 | – | –
CG8851 | DRSC00718 | 0.55 | 0.38 | – | –
l(3)mbn (lethal (3) malignant blood neoplasm) | DRSC08793 | 0.27 | 0.07 | – | –
Plap (Phospholipase A2 activator protein) | DRSC00678 | 0.29 | 0.3 | – | –
kermit | DRSC06074 | 0.41 | 0.23 | – | –
Eglp3 (Entomoglyceroporin 3) | DRSC04293 | 0.13 | 0.25 | – | –
Acp76A (Accessory gland protein 76A) | DRSC09665 | 0.39 | 0.2 | – | –
Ggamma30A (G protein gamma subunit 30A) | DRSC02715 | 0.06 | 0.06 | – | –
Ggamma30A (G protein gamma subunit 30A) | DRSC03331 | 0.13 | 0.22 | – | –
Pde8 (Phosphodiesterase 8) | DRSC04503 | 0.15 | 0.11 | – | –
CG42854 | DRSC19173 | -0.81 | -0.2 | – | –
PIG-B (Phosphatidylinositol glycan anchor biosynthesis class B) | DRSC08216 | 0.45 | 0.53 | 0.47 | 0.22
PIG-B (Phosphatidylinositol glycan anchor biosynthesis class B) | DRSC22598 | 0.17 | -0.12 | – | –
